# Data taken from PubChem BioAssay AID1487 (National Center for Advancing Translational Sciences (NCATS), 2009).
# Values joined by “and” are separate entries in the source; they are usually repeats but may differ in a detail not shown here. Equal entries are not always repeated. The list shows a part of the results. The main result of the screen is listed elsewhere. These columns were measured beside it and carry no call. Most of these compounds were active or inconclusive in the main read-out, so they are no random draw. The note in brackets gives the kind of curve behind each potency; many fits are weak.
# Assay: qHTS Assay for Modulators of Lamin A Splicing
# Details: HeLa LMNA splicing GFP/RFP minigene ratio, 48 h
# Outline: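 Read-out is the ratio of GFP to DsRed2 object intensity, acquired by 488 nm laser-scanning cytometry on HeLa lamin A-EGFP minigene reporter cells. Compound incubation 48 hrs at 37 °C in Opti-MEM with 2% FBS; DMSO 0.5% final.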
# [1] = measured here: GFP splicing reporter channel
# [2] = measured here: RFP viability control channel
SMILES,AC50 [1],AC50 [2]
COc1ccc(/C=N/OCC(=O)Nc2nc3ccccc3s2)cc1,"0.0794 µM [rising, full curve, poor fit]",–
Cc1nn(C)c2c1c(-c1ccccc1)cc(=O)n2C(C)C(=O)NCc1ccc(F)cc1 (stereo not given),–,"0.00282 µM [falling, full curve, poor fit]"
COC(=O)c1sc(S(=O)(=O)Nc2ccc(Br)cc2)c(C(=O)OC)c1C,–,"14.1 µM [rising, single point]"
Cc1nnsc1C(=O)N/N=C/c1ccc2ccccc2c1O,–,"3.16 µM [rising, full curve]"
O=C(Cc1c(F)cccc1Cl)Nc1ccc(-n2cnnn2)cc1,–,"0.158 µM [rising, full curve, poor fit]"
CCCCSc1nc(C)cc(SCC(=O)N/N=C/c2cccc(OC)c2O)n1,"7.94 µM [falling, partial curve]","6.31 µM [falling, full curve]"
S=C(NCc1ccccc1Cl)NC1CCCC1,"7.08 µM [rising, partial curve, poor fit]",–
COc1ccc(N2CCN(c3oc(-c4ccco4)nc3C#N)CC2)cc1,–,"15.8 µM [rising, single point]"
O=C(/C=C/c1ccc2ccccc2n1)N1CCN(c2ccccc2)CC1,–,"35.5 µM [rising, single point]"
c1ccc(-c2nnc(N3CCN(c4ccccn4)CC3)c3ccccc23)cc1,–,"14.1 µM [rising, single point]"
COc1ccc(N(C(=O)c2cccnc2)S(=O)(=O)c2cccs2)cc1,–,"0.631 µM [rising, partial curve]"
CC(C)C(=O)NC(c1ccccc1)c1cc([N+](=O)[O-])c2cccnc2c1O (stereo not given),–,"6.31 µM [rising, full curve]"
COC(=O)c1c(-c2ccc(Cl)cc2)noc1N1CCN(c2cccc(C(F)(F)F)c2)CC1,"2.82 µM [falling, full curve]","4.47 µM [falling, partial curve]"
COc1ccc(CCN(C)C(=S)NC(=O)c2ccc(F)cc2Cl)cc1OC,–,"0.158 µM [rising, full curve, poor fit]"
Nc1c(Cl)ncnc1N/N=C/c1ccc2ccccc2n1,–,"2.82 µM [rising, full curve]"
CCOC(=O)CC(NC(=O)N1CCC(CN2CCC(C)CC2)CC1)c1ccccc1 (stereo not given),–,"0.708 µM [falling, full curve, poor fit]"
COc1ccccc1-n1c(SCC(=O)N2CCc3ccccc32)nc2c(c1=O)SCC2,–,"11.2 µM [rising, partial curve]"
CC1(C)[C@@H]2CC[C@@]1(C)C(=O)C2,"0.00158 µM [falling, full curve, poor fit]","10 µM [rising, single point]"
COc1ccc(OC)c(CN2CCN(C(=O)c3cccc4ccccc34)CC2)c1,–,"11.2 µM [rising, single point]"
COc1ccc(-c2cc(C(F)(F)F)nc(SCC(=O)Nc3cc(C)on3)n2)cc1,–,"3.98 µM [rising, full curve]"
O=C(/C=C/c1ccccc1)CC(O)(c1ccccc1)C(F)(F)F (stereo not given),"25.1 µM [falling, single point]","35.5 µM [falling, single point]"
CCCCN(C)C(=O)C1CCC(CNS(=O)(=O)c2ccc(Cl)cc2)CC1 (stereo not given),–,"31.6 µM [falling, partial curve]"
Cc1cc(=O)oc2cc(OC(=O)CCCCCN3C(=O)c4ccccc4C3=O)ccc12,–,"3.16 µM [falling, full curve, poor fit]"
Cc1cc(Cl)nc(-c2ccccc2)n1,"0.0891 µM [falling, full curve]","0.0447 µM [falling, full curve]"
CN1CCN(C(c2ccccn2)c2cc(Cl)c3cccnc3c2O)CC1 (stereo not given),–,"10 µM [rising, partial curve]"
O=C(N/N=C/c1cn(-c2ccccc2)nc1-c1ccccc1)c1ccco1,"14.1 µM [rising, single point]","12.6 µM [rising, partial curve]"
CCOc1cc(CNc2ccc3c(c2)OCCO3)cc(Br)c1OCC,"4.47 µM [falling, full curve]","5.01 µM [falling, full curve]"
O=C(COC(=O)CCc1nc2ccccc2c(=O)[nH]1)NC1CCS(=O)(=O)C1 (stereo not given),"11.2 µM [falling, partial curve, poor fit]",–

# Full records, quoted from the list.
# `COc1ccc(/C=N/OCC(=O)Nc2nc3ccccc3s2)cc1` in the list: AC50 [1]: 0.0794 µM [rising, full curve, poor fit]
# `Nc1c(Cl)ncnc1N/N=C/c1ccc2ccccc2n1` in the list: AC50 [2]: 2.82 µM [rising, full curve]

# (more compounds)

SMILES,AC50 [1],AC50 [2]
COc1ccc2c(c1OC)C(=O)OC2C1c2c(cc3c(c2OC)OCO3)CCN1C (stereo not given),–,"35.5 µM [rising, single point] and 11.2 µM [rising, partial curve]"
COc1ccc(N=c2scc(-c3ccc(OC)cc3)n2CCO)cc1,–,"22.4 µM [rising, partial curve]"
Cc1ccc(S(=O)(=O)N[C@H](C(=O)OCC(=O)NC(=O)Nc2ccc3c(c2)OCCO3)C(C)C)cc1,"11.2 µM [rising, partial curve]","12.6 µM [rising, partial curve]"
COC(=O)c1ccc(CSc2nc3c(cnn3-c3ccc(Cl)cc3)c(=O)[nH]2)o1,"7.08 µM [falling, partial curve, poor fit]",–
CCOC(=O)c1ccc2c(c1)nc(SCc1cn3ccsc3n1)n2CC,"11.2 µM [rising, partial curve]","12.6 µM [rising, partial curve]"
Cc1ccc(NC(=O)CN2C(=O)C3(SCC(=O)N3c3cccc(Cl)c3)c3ccccc32)cc1C (stereo not given),"0.112 µM [falling, full curve, poor fit]",–
CCCN1C[C@H](CSC)C[C@@H]2c3cccc4[nH]cc(c34)C[C@H]21,"562 nM [falling, full curve] and 35.5 µM [rising, single point]",–
COc1cc(SC)ccc1C(=O)Nc1ncc(C)s1,–,"25.1 µM [falling, partial curve, poor fit]"
O=C(Cn1nc(C(F)F)cc1C(F)F)NNC(=S)Nc1ccc([N+](=O)[O-])cc1,–,"0.0708 µM [falling, full curve]"
CCc1c(C#N)c(SCCC(=O)Nc2ccc(C)cc2)nc2c1C(=O)CC(C)(C)C2,"5.62 µM [falling, single point]",–
Cc1ccc(NS(=O)(=O)c2ccc3c(c2)CCCN3C(=O)C2CCC2)cc1Cl,–,"11.2 µM [rising, single point]"
O=C(Cn1nc(CNc2ccc(Cl)cc2)[n+]2c1CCCCC2)c1ccc(Cl)cc1,–,"35.5 µM [rising, single point]"
O=[N+]([O-])/C=C/c1cn(Cc2ccc(Cl)cc2)c2ccccc12,"35.5 µM [falling, single point]",–
COc1ccc(C2c3c(C)nn(-c4ccccc4)c3NC(=O)N2c2ccccc2)cc1 (stereo not given),–,"12.6 µM [rising, partial curve, poor fit]"
COC(=O)[C@H](C)[C@@H]1C[C@@]1(C)[C@@H](NC(=O)OCc1ccccc1)c1ccccc1,"35.5 µM [rising, single point]","35.5 µM [rising, partial curve, poor fit]"
CCOC(=O)C1=C(O)C(=O)N(Cc2cccnc2)C1c1ccc(OC)cc1 (stereo not given),"35.5 µM [falling, single point]",–
Cc1ccc(CSc2nc3ccsc3c(=O)n2Cc2ccccn2)cc1,"12.6 µM [rising, single point]","28.2 µM [rising, single point]"
CO/N=C/c1ccc(N2CCN(C(=O)c3ccc(F)cc3)CC2)c([N+](=O)[O-])c1,–,"12.6 µM [rising, single point]"
C=C1CC23C[C@H]4[C@@H]5[C@@]6(C)C[C@H](OC(=O)c7ccccc7)[C@@H](OC(C)=O)[C@]57[C@@H]2[C@@H](OC(C)=O)[C@H]1[C@@H](O)[C@H]3[C@H]7N4C6,"0.224 µM [falling, full curve]","8.91 µM [falling, single point]"
CCOc1ccccc1NS(=O)(=O)c1ccc(-c2cnc(C3CC3)o2)cc1,–,"0.224 µM [rising, full curve]"
COC(=O)c1c(C)oc2ccc(N(C(=O)c3ccncc3)S(=O)(=O)c3ccc(C)cc3)cc12,–,"4.47 µM [rising, full curve]"
CN(CCOc1cccc(C(F)(F)F)c1)Cc1ccccc1,"0.01 µM [rising, full curve, poor fit]",–
COc1cccc(CSc2nc3sc(C)c(C)c3c(=O)n2Cc2ccco2)c1,"11.2 µM [rising, partial curve, poor fit]","15.8 µM [rising, partial curve]"
CC(=O)C1=NN(c2ccccc2)C(c2ccc3c(c2)OCO3)N1c1ccc(N2CCOCC2)cc1 (stereo not given),"14.1 µM [rising, partial curve]","0.794 µM [rising, single point]"
CCOc1nc(Nc2ccc([N+](=O)[O-])cc2)nc(NC(C)(C)C)n1,–,"12.6 µM [rising, partial curve]"
O=C(N/N=C/C=C/c1ccccc1[N+](=O)[O-])c1cc(-c2ccccc2)n[nH]1,"0.0355 µM [falling, full curve, poor fit]","0.0562 µM [falling, full curve, poor fit]"
CCCCOC(=O)C1=C(C)Nc2nnnn2C1c1ccccc1Cl (stereo not given),–,"17.8 µM [rising, single point]"
